Test results taken from PMC10611234.
No constants are given. Whether binding was seen depends on the method and setting. Binding seen in cells or lysates may run through a third protein. Some entries that bind do so weakly or less than the wild type. For part of these data: Tags and fused reporters may be left off the sequences shown.

By UniProt entry, the sequences of proteins in these tests, tags left out.
UniProt P46934: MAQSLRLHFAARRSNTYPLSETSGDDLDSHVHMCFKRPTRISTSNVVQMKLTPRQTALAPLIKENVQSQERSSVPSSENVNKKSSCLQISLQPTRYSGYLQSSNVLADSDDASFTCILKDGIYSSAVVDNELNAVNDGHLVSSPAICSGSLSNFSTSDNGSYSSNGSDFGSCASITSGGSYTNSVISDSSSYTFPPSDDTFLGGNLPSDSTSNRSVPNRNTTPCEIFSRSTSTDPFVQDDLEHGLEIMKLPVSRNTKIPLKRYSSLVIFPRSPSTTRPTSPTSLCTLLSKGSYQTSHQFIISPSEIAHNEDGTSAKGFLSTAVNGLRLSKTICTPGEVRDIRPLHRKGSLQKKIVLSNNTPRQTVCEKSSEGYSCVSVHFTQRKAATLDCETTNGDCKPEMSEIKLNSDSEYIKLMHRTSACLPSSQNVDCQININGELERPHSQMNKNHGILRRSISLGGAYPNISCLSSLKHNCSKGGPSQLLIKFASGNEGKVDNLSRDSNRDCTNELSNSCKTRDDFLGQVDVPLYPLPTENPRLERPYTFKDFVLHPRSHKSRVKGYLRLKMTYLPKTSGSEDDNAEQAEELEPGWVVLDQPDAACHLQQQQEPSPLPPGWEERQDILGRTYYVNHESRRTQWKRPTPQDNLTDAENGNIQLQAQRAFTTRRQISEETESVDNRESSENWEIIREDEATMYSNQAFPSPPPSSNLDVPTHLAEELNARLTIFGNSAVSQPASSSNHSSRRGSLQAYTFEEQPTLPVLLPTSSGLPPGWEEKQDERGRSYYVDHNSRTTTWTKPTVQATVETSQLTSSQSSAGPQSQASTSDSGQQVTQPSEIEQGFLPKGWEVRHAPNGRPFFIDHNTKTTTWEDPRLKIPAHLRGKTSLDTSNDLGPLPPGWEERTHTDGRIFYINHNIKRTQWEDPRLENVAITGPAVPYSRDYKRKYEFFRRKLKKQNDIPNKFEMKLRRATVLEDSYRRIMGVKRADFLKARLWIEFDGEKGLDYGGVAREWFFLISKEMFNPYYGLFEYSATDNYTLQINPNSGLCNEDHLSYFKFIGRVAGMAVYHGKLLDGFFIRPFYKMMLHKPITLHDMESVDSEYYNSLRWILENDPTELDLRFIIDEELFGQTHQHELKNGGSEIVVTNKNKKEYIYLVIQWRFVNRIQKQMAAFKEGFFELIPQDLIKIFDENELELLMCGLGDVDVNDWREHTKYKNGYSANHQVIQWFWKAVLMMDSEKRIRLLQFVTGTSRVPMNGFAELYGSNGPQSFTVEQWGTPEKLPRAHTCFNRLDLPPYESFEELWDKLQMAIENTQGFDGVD
UniProt Q01628: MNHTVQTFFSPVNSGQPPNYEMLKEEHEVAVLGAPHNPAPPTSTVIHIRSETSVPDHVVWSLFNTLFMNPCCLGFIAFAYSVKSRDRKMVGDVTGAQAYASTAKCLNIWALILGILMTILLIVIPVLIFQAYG

Tests used:
HA-NEDD4 (pCI-HA-NEDD4) [1] = molecular target: HA-NEDD4 (pCI-HA-NEDD4) (UniProt P46934); assay: co-IP; HEK293T cells transfected with the proteins in pairs; lysis/IP buffer 50 mM Tris/HCl pH 7.4, 150 mM NaCl, 0.1% NP-40, 1 mM EDTA; 1 ug monoclonal antibody, Protein A-sepharose; Western blot
[2] = molecular target: T1, Human Myc-tagged NDFIP2 (human) (UniProt Q9NV92); assay: as above
T1 sequence: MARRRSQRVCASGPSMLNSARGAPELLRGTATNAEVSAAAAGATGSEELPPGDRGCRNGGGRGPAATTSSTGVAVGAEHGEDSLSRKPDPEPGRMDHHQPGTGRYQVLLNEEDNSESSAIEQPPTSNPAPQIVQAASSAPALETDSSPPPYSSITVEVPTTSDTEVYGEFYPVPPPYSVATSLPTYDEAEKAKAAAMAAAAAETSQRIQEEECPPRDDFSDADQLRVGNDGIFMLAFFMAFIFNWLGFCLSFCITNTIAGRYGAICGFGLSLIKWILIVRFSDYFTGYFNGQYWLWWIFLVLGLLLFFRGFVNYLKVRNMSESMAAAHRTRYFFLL

HA-NEDD4 (pCI-HA-NEDD4) [3] = molecular target: HA-NEDD4 (pCI-HA-NEDD4) (UniProt P46934); assay: co-IP; HEK293T cells transfected with NEDD4, IFITM3 and NDFIP2 together (DNA ratio 1:1:0.2); lysis/IP buffer 50 mM Tris/HCl pH 7.4, 150 mM NaCl, 0.1% NP-40, 1 mM EDTA; IP with antibodies specific for IFITM3, NDFIP2 and NEDD4; Western blot
[4] = molecular target: T1, Human Myc-tagged NDFIP2 (human); assay: as above

binding (HA-NEDD4 (pCI-HA-NEDD4) [1]) | binding [2] | binding (HA-NEDD4 (pCI-HA-NEDD4) [3]) | binding [4] | Substance
binds | binds | binds | binds | Flag-tagged human IFITM3 (from UniProt Q01628 1-133)
 | binds |  | binds | HA-NEDD4 (pCI-HA-NEDD4) (from UniProt P46934 1-1319) (enzyme)
